This is an account of results in the supplement of paper PMC6331611.

± gives the standard deviation of the averaged measurements. Whole data set: some 1,600 compounds, median “normalized growth (OD600, IQM-normalized) in LPM” near 1, cut for the lowest 2% near 0.014. Some of the results follow.

The experiment relates to Salmonella enterica serovar Typhimurium SL1344. The experiment is described as follows: normalized growth (OD600, IQM-normalized) in LPM (fraction of plate interquartile mean); higher = more bacterial growth (less inhibition). As to conditions: LPM pH 5.8; 10 µM; 16 h.
`COC(=O)C1=C(C)NC(C)=C(C(=O)OC(C)C)C1c1cccc2nonc12` (centres undefined) had a normalized growth of 1.16 ± 0.2. Compound `CC(=O)SCC(Cc1ccccc1)C(=O)NCC(=O)OCc1ccccc1` (centres undefined) returned a normalized growth of 1 ± 0.047.

`CC1COc2c(N3CCN(C)CC3)c(F)cc3c(=O)c(C(=O)O)cn1c23` (centres undefined) showed a normalized growth of 0.0109 ± 0.00084.

Compound `O=C(O)CCCC[C@@H]1SC[C@@H]2NC(=O)N[C@@H]21` returned a normalized growth of 0.999 ± 0.031. To `CN1CCN(c2cc3c(cc2F)c(=O)c(C(=O)O)cn3-c2ccc(F)cc2)CC1` belongs 0.0108 ± 0.00018.

`C#CCN(C)CCCOc1ccc(Cl)cc1Cl`: the normalized growth is 0.933 ± 0.04. Under `O=C(O)CN(CCN(CC(=O)O)CC(=O)O)CCN(CC(=O)O)CC(=O)O` stands 0.0445 ± 0.029; under `CC(C)NCC(O)c1cc(O)cc(O)c1` (centres undefined), 1.13 ± 0.082; under `CCN(CC)Cc1cc(Nc2ccnc3cc(Cl)ccc23)ccc1O`, 0.991 ± 0.09. The compound `CCC(=O)OCC(=O)[C@@]1(OC(=O)CC)[C@@H](C)C[C@H]2[C@@H]3CCC4=CC(=O)C=C[C@]4(C)[C@@]3(Cl)[C@@H](O)C[C@@]21C` came in with a normalized growth of 0.95 ± 0.053.

In turn, `O=C(/C=C/C=C/c1ccc2c(c1)OCO2)N1CCCCC1` returned a normalized growth of 1.151 ± 0.0046.

`COc1ccccc1N1CCN(CCCNc2cc(=O)n(C)c(=O)n2C)CC1`: the normalized growth came out at 1.08 ± 0.035. Under `O=C1CCC(N2C(=O)c3ccccc3C2=O)C(=O)N1` (centres undefined) stands 1.08 ± 0.041; under `C=CCCCCCCCCC(=O)O`, 1.01 ± 0.038; under `CCCCc1nc(Cl)c(CO)n1Cc1ccc(-c2ccccc2-c2nnn[nH]2)cc1`, 0.945 ± 0.033. To `CC1(C)S[C@@H]2[C@H](NC(=O)Cc3ccccc3)C(=O)N2[C@H]1C(=O)O` belongs 1.01 ± 0.061; to `CC(=O)OCC1=C(C(=O)O)N2C(=O)[C@@H](NC(=O)Cc3cccs3)[C@H]2SC1`, 1.01 ± 0.054; to `CCOc1ccc(NC(=O)CC(C)O)cc1` (centres undefined), 1.02 ± 0.021.

For the compound `Cc1nc2n(c(=O)c1CCN1CCC(c3noc4cc(F)ccc34)CC1)CCCC2O` (centres undefined), the normalized growth was 1.02 ± 0.079.

As for `CCN(CC)CCNC(=O)COc1ccc(OC)cc1`, the normalized growth was determined as 0.869 ± 0.0096. Under `CC(N)C(=O)OC(C)(C)Cc1ccc(Cl)cc1` (centres undefined) stands 0.917 ± 0.1. To `C[C@H]1[C@H](OC(=O)CCC(=O)O)O[C@@H]2O[C@@]3(C)CC[C@H]4[C@H](C)CC[C@@H]1[C@@]24OO3` belongs 0.951 ± 0.049; to `C[n+]1ccccc1/C=N/O`, 0.929 ± 0.036.

In the case of `CCC(C)n1ncn(-c2ccc(N3CCN(c4ccc(OCC5COC(Cn6cncn6)(c6ccc(Cl)cc6Cl)O5)cc4)CC3)cc2)c1=O` (centres undefined), the normalized growth was 1.01 ± 0.028. As to `Cc1cccc(Nc2ccccc2C(=O)O)c1C`, the normalized growth amounted to 1.03 ± 0.07.

For the compound `O=C(O)CCNC(=O)c1ccc(/N=N/c2ccc(O)c(C(=O)O)c2)cc1`, the normalized growth stood at 1 ± 0.051.

Regarding `CNCCCN1c2ccccc2CCc2ccccc21`, the normalized growth came to 1.05 ± 0.015.

Turning to `O=C1OC(CN2CCOCC2)CN1/N=C/c1ccc([N+](=O)[O-])o1` (centres undefined), the normalized growth turned out to be 0.957 ± 0.062. Under `CC[n+]1c(-c2ccccc2)c2cc(N)ccc2c2ccc(N)cc21` stands 0.808 ± 0.014.
